From paper PMC11396530
Results are given in words; binding and its absence hold for the method and conditions named. In cells and extracts the contact can be indirect. Some results given as binding are weak or reduced against the parent protein; the word gives no strength. For some assays here: Sequences can lack the tags named with a protein.

Chains of the proteins cited; added tags and fusions are not shown. Residues count along the entry.
UniProt Q14694: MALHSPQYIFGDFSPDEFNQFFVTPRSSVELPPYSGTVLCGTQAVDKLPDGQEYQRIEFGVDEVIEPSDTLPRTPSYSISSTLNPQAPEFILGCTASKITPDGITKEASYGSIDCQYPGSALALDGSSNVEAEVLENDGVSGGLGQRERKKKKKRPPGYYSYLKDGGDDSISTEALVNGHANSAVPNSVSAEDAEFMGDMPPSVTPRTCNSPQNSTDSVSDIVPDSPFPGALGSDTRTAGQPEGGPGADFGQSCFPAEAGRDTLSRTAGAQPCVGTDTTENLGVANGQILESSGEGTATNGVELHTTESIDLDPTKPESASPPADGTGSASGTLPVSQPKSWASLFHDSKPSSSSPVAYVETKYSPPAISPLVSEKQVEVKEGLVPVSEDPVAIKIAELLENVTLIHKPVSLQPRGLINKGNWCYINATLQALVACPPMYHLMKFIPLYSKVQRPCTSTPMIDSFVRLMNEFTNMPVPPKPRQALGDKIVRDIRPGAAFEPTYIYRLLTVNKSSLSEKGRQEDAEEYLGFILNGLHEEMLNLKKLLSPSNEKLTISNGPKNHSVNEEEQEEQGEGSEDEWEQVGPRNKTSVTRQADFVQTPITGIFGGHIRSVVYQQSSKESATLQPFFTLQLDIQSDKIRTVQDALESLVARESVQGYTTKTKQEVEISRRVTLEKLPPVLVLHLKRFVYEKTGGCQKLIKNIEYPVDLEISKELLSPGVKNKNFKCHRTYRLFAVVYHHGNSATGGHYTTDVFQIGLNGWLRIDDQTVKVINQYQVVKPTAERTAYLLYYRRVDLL
UniProt P11021, residues 19-654: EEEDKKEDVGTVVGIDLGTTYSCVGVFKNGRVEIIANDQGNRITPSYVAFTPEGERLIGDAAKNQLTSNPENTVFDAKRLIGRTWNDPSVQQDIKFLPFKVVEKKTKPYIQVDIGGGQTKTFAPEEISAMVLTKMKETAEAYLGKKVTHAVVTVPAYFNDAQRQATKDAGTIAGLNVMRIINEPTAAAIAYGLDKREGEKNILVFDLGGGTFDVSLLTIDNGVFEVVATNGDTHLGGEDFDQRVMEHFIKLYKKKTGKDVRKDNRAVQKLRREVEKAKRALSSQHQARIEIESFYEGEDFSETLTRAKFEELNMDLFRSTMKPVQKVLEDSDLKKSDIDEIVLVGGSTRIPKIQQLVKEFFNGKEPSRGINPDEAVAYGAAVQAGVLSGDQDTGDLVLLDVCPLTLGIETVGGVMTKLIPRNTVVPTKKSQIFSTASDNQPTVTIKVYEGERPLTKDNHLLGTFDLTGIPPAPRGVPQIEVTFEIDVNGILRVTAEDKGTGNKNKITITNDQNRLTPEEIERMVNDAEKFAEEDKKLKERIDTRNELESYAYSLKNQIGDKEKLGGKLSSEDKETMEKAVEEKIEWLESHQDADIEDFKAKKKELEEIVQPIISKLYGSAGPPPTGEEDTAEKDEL

Columns and labels:
[1] = target: USP10, endogenous (human (endogenous in DLD-1, RKO and HCT 116)) (UniProt Q14694); assay: co-IP; endogenous proteins in DLD-1 and RKO cell lysates, Protein A/G magnetic beads, 12 h at 4 °C, Western blot; for USP10 with GRP78 also after GCS1 knock-down (DLD-1) or GCS1 overexpression (HCT 116)
[2] = target: T1, glucosidase I (GCS1), endogenous (human (endogenous in DLD-1 and RKO)) (UniProt Q13724); assay: as above
T1 sequence: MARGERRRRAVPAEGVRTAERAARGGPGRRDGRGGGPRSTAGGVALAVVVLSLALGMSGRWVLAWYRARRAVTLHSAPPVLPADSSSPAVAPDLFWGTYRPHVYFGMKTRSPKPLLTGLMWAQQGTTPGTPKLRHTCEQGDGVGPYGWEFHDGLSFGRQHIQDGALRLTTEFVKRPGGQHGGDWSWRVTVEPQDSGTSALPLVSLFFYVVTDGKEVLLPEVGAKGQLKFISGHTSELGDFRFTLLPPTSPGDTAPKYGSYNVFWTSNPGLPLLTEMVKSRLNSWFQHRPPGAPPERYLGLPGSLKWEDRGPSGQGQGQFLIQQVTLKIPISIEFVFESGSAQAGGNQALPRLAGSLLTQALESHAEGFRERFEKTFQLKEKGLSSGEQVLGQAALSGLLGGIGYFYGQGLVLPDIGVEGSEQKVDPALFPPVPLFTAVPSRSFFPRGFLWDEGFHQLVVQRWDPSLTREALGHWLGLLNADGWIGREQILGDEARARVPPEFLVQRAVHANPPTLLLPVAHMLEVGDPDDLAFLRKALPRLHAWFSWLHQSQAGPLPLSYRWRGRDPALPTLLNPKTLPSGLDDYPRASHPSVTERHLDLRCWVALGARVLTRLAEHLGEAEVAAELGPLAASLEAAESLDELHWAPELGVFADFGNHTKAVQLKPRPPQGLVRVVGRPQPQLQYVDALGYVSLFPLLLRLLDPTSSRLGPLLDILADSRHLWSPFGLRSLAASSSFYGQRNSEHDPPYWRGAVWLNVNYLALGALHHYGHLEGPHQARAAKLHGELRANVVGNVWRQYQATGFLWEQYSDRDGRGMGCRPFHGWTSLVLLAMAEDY

Flag-GCS1-C = target: T2, Flag-GCS1-C (UniProt Q13724); assay: co-IP; HEK293T cells transfected with tagged plasmids (Flag-GCS1-FL/N/C, Myc-GRP78, USP10), lysate, Western blot
T2 sequence: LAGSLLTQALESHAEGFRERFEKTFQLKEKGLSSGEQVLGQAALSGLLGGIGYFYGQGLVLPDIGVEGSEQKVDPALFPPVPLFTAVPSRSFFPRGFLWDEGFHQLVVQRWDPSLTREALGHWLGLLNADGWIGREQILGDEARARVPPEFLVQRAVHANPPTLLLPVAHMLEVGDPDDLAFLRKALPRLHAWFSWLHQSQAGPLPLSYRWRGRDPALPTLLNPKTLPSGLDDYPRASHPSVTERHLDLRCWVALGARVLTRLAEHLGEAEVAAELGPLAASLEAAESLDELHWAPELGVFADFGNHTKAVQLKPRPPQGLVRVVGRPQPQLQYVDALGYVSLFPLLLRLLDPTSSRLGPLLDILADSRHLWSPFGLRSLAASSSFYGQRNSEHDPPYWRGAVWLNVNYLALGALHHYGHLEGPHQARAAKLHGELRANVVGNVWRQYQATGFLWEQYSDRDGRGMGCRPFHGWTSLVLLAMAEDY

His-USP10 = His-USP10 (UniProt Q14694); assay: as above
Flag-GCS1-FL = target: T3, Flag-GCS1-FL (UniProt Q13724); assay: as above
T3 sequence: T1 sequence

| Substance | binding [1] | binding [2] | binding (Flag-GCS1-C) | binding (His-USP10) | binding (Flag-GCS1-FL) |
| --- | --- | --- | --- | --- | --- |
| GRP78, endogenous (from UniProt P11021 19-654) | binds | binds | – | – | – |
| Myc-GRP78 (from UniProt P11021 19-654) | – | – | binds | binds | binds |
